Measurements reported in PubChem BioAssay AID1671190 (National Center for Advancing Translational Sciences (NCATS), 2021).
In all, about 580,000 compounds went through this assay and about 6,100 (1.1%) were called active. The shares of active, inactive and inconclusive entries below differ from those in the screen. The call rests on the fitted dose curve; in most records, active means well fitted inhibition curve with a large enough effect; inconclusive means small, poorly fitted or top-dose-only effect, or another doubt; inactive means no such curve, though single readings can be large or run the other way. A potency beside an inconclusive call is a rough fit, not a confirmed value.

Protein sequences, listed by entry. Tags and fused reporters are not part of them.
UniProt P18054, whole entry, looked up: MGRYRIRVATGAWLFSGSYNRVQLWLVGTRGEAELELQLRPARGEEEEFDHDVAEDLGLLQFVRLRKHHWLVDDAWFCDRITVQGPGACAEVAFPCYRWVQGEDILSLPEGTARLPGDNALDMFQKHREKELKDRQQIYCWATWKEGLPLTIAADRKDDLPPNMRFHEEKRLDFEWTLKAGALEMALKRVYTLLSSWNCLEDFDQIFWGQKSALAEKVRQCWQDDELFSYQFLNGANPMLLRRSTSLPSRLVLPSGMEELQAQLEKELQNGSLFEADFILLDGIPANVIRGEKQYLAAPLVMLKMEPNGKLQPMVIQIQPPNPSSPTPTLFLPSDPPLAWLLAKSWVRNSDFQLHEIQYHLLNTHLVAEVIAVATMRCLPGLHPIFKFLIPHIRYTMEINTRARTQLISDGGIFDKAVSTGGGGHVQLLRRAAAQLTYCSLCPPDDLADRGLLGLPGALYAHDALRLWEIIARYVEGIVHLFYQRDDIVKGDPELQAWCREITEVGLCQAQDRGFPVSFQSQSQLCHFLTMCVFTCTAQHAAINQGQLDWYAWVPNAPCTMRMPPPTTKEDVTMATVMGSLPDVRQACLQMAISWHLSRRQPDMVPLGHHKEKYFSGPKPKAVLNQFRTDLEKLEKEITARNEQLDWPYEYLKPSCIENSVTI

Target: Polyunsaturated fatty acid lipoxygenase ALOX12 (Homo sapiens) (UniProt P18054)
Test: Primary qHTS assay for inhibitors of human arachidonate 12S-lipoxygenase (ALOX12): Round 2
Conditions: purified 12hLO, xylenol orange hydroperoxide absorbance; activity change, negative = inhibition: at 108 µM (top of the series) unless noted
Outline: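 Purified human 12hLO at 150 nM in 25 mM Hepes, 0.01% Triton X-100, pH 7.0, preincubated 15 min at room temperature with compound. Reaction started with 40 uM arachidonic acid, 30 min at room temperature. Hydroperoxide measured by Fe-xylenol orange, 573/405 nm absorbance ratio.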
On the % scale 0 is the no-effect control and ±100 the full control effect; potency means the concentration at half of the fitted maximal effect.

| SMILES | Potency | activity change, negative = inhibition |
| --- | --- | --- |
| Cc1ccc(S(=O)(=O)N2CCN(C(=O)CCc3ncc(-c4ccccc4F)o3)CC2)c(C)c1 | inconclusive: 25.1 µM [inhibitor, single point] | – |
| Cc1ccc(CN2CCN(/N=C/C=C/c3ccccc3[N+](=O)[O-])CC2)cc1 | inconclusive: 89.1 µM [inhibitor, partial curve, poor fit] | – |
| COc1ccc(-c2csc3[nH]c(=S)n(-c4ccccc4)c(=O)c23)cc1OC | inconclusive: 50.1 µM [inhibitor, partial curve, poor fit] | – |
| O=C(Nc1cc(F)ccc1F)N1CC(=O)N2[C@@H](CO)[C@H](c3ccc(Br)cc3)[C@@H]2C1 | inconclusive: 17.8 µM [inhibitor, partial curve, poor fit] | – |
| Cc1nc(N)nc(Nc2ccc(C#N)cc2)c1Br | – | inactive: 1.26% |
| CC1CN(c2ccc([N+](=O)[O-])cc2C#N)CC(C)O1 (stereo not drawn) | – | inactive: -8.73% |
| O=C(c1cccc([N+](=O)[O-])c1)N1CCN(S(=O)(=O)N2CCCCC2)CC1 | – | inactive: -0.136% |
| COc1cccc(C(Nc2ccccc2)c2ccc3ccc(C)nc3c2O)c1 (stereo not drawn) | – | inactive: -21.3% |
| Cn1c(C(=O)N2CCN(c3ccc(Cl)cc3)CC2)cc2c(=O)[nH]c3ccccc3c21 | inconclusive: 89.1 µM [inhibitor, single point] | – |
| COC(=O)c1nc2nc(C)cc(=O)n2[nH]1 | inconclusive: 89.1 µM [inhibitor, single point] | – |
| C/C=C/c1ccc(Oc2nnnn2-c2ccc(C(N)=O)cc2)c(OC)c1 | – | inactive: -14.2% |
| COCCN1C(=O)C(=O)/C(=C(/O)c2ccc3c(c2)OCCO3)C12C(=O)N(C)c1ccccc12 (stereo not drawn) | inconclusive: 15.8 µM [inhibitor, partial curve, poor fit] | – |
| CCOCC1(C)COc2ccc(C(=O)Nc3cccc(OC)c3)cc2N1 (stereo not drawn) | – | inactive: 3.12% [at 176 µM] |
| COc1ccc(C(=Cc2ccccc2[N+](=O)[O-])C(=O)O)cc1 | inconclusive: 70.8 µM [inhibitor, single point] | – |
| O=C(NCc1ccccc1)C1=C[C@@H](c2ccc3c(c2)OCO3)C[C@@H](OCc2ccc(CO)cc2)O1 | inconclusive: 28.2 µM [inhibitor, partial curve, poor fit] | – |
| C=Cc1ccc(CSc2nc(-c3ccc(Cl)cc3)nc3c2Cc2c(CO)cnc(C)c2O3)cc1 | inconclusive: 79.4 µM [inhibitor, partial curve, poor fit] | – |
| O=C(Nc1ccccc1N1CCCC1)c1ccc(N2CCCC2=O)cc1 | inconclusive: 44.7 µM [inhibitor, partial curve, poor fit] | – |
| COc1ccc(-c2cc(C(F)(F)F)nc(NCc3ccccc3)n2)cc1OC | inconclusive: 35.5 µM [inhibitor, full curve, poor fit] | – |

Single values from the list:
Potency, O=C(Nc1ccccc1N1CCCC1)c1ccc(N2CCCC2=O)cc1 is entered as inconclusive: 44.7 µM [inhibitor, partial curve, poor fit]
Potency, C=Cc1ccc(CSc2nc(-c3ccc(Cl)cc3)nc3c2Cc2c(CO)cnc(C)c2O3)cc1 is entered as inconclusive: 79.4 µM [inhibitor, partial curve, poor fit]
